Values from PubChem BioAssay AID1259424 (University of Nebraska Medical Center, 2018)
Shown is a random part of about 14,000 reagents tested. 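Higher correlation or smaller distance means closer resemblance to KSR1 loss; control wells, including KSR1 knockdowns, recur on many plates.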 Not all columns of the deposit are shown. The record does not give: the time to read-out.

- Assay: 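Seek colon cancer survival genes behaving like KSR1, using a six-gene signature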 (primary screen)
- Cells: human HCT116 colon cancer cells
- Reagent: siRNA pool against human genes, 50 nM
- Measured: 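Log2 levels of six mRNAs (branched-DNA multiplex), adjusted by two reference genes and the non-targeting median, then scored against the average KSR1 knockdown pattern as Pearson r and euclidean distance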
- Scale: mean correlation with KSR1 profile: higher = expression change more like KSR1 knockdown

| gene symbol | mean correlation with KSR1 profile |
| --- | --- |
| CCNE1 | 0.445 |
| SALL2 | -0.37 |
| CDY2A | 0.0689 |
| TRH | 0.0709 |
| MYL12A | 0.123 |
| PLEK2 | -0.383 |
| KRTAP3-1 | 0.666 |
| SCTR | 0.702 |
| SF3A1 | -0.00389 |
| SUCLG2 | 0.291 |
| SERPINB6 | -0.233 |
| SKA3 | 0.0678 |
| NECAB2 | -0.603 |
| CD8A | -0.309 |
| KIF5C | -0.323 |
| MAP2K5 | 0.263 |
| GNG10 | 0.189 |
| LILRB4 | -0.178 |
| PRPF8 | 0.291 |
| COG6 | -0.679 |
| PXMP2 | -0.433 |
| EDARADD | -0.0447 |
| RIT2 | 0.499 |
| EXOC3 | -0.0706 |
| AMHR2 | 0.534 |
| KIAA1755 | 0.556 |
| VHL | -0.742 |
| ASPA | 0.39 |
| WHR1 | 0.321 |
| NECAB1 | -0.275 |
| RBM15 | 0.295 |
| DBN1 | -0.529 |
| NMNAT1 | -0.276 |
| DAZ4 | -0.184 |

Records listed so far whose target name starts with D or d:
| gene symbol | mean correlation with KSR1 profile |
| --- | --- |
| DBN1 | -0.529 |
| DAZ4 | -0.184 |
